Laboratory results from publication PMC8782181.

Chains of the proteins cited; added tags and fusions are not shown.
UniProt P53297: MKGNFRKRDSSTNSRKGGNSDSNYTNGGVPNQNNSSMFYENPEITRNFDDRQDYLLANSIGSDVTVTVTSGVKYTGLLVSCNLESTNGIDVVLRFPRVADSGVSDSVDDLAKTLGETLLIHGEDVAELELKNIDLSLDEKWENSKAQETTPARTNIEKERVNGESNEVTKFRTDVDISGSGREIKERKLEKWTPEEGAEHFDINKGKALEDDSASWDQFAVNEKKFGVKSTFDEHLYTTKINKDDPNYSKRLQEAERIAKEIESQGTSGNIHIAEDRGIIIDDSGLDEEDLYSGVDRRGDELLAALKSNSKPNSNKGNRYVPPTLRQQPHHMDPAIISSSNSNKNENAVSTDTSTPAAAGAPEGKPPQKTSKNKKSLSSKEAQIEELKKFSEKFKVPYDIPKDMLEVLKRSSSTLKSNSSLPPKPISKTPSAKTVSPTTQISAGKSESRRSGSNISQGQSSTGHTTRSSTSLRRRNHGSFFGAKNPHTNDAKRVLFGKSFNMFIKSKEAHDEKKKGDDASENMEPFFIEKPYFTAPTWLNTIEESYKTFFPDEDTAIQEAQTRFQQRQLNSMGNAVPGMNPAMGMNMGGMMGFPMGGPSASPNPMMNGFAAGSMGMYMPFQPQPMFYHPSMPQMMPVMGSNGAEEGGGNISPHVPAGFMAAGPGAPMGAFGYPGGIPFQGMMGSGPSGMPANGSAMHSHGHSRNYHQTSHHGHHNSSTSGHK

Target: Pbp1-myc (S. cerevisiae) (UniProt P53297)
Assay: affinity purification with mass spectrometry; cells unstressed or glucose-depleted (10 min for Dcp1-myc, 60 min for Pbp1-myc), cross-linked with 0.8% formaldehyde; 20,000 g pellet of the lysate in Blob100 buffer (20 mM Tris-HCl pH 8, 100 mM NaCl, 1 mM MgCl2, 0.5% NP40) on anti-c-Myc magnetic beads, eluted with Myc peptide; label-free LC-MS/MS; hits are the proteins that cluster (Mfuzz) with the tagged bait across IP, pellet, supernatant, total and unbound fractions

binding: binds
B1: Bre5 (protein, UniProt P53741 1-515)
chain: MGVTVQDICFAFLQNYYERMRTDPSKLAYFYASTAELTHTNYQSKSTNEKDDVLPTVKVTGRENINKFFSRNDAKVRSLKLKLDTIDFQYTGHLHKSILIMATGEMFWTGTPVYKFCQTFILLPSSNGSTFDITNDIIRFISNSFKPYVLTDASLSQSNEENSVSAVEEDKIRHESGVEKEKEKEKSPEISKPKAKKETVKDTTAPTESSTQEKPIVDHSQPRAIPVTKESKIHTETVPSSTKGNHKQDEVSTEELGNVTKLNEKSHKAEKKAAPIKTKEGSVEAINAVNNSSLPNGKEVSDEKPVPGGVKEAETEIKPIEPQVSDAKESGNNASTPSSSPEPVANPPKMTWASKLMNENSDRISKNNTTVEYIRPETLPKKPTERKFEMGNRRDNASANSKNKKKPVFSTVNKDGFYPIYIRGTNGLREEKLRSALEKEFGKVMRITAADNFAVVDFETQKSQIDALEKKKKSIDGIEVCLERKTVKKPTSNNPPGIFTNGTRSHRKQPLKRKD

binding: binds
B2: Bfr1 (protein, UniProt P38934 1-470)
chain: MSSQQHKFKRPDVSVRDKKLDTLNVQLKKIDTEIGLIRKQIDQHQVNDTTQQERKKLQDKNKEIIKIQADLKTRRSNIHDSIKQLDAQIKRKNNQIEEKLGKKAKFSSTAEAKQRINEIEESIASGDLSLVQEKLLVKEMQSLNKLIKDLVNIEPIRKSVDADKAKINQLKEELNGLNPKDVSNQFEENQQKLNDIHSKTQGVYDKRQTLFNKRAALYKKRDELYSQIRQIRADFDNEFKSFRAKLDKERLKREEEQRLSKLLEQKDVDMGKLQEKLTHAKIPAFTYEIGAIENSLLVLDPTYVKPKKNILPDLSSNALETKPARKVVADDLVLVTPKKDDFVNVAPSKSKKYKKKNQQKNTENEQPASIFNKVDGKFTLEPTLIATLAELDVTVPINSDDVKITVEQLKKKHEELLSKQEEQTKQNIESVEKEIEKLNLDYSNKEQQVKKELEEKRLKEQEESEKDKEN

binding: binds
B3: Utp22 (protein, UniProt P53254 1-1237)
chain: MATSVKRKASETSDQNIVKVQKKHSTQDSTTDNGSKENDHSSQAINERTVPEQENDESDTSPESNEVATNTAATRHNGKVTATESYDIHIARETAELFKSNIFKLQIDELLEQVKLKQKHVLKVEKFLHKLYDILQEIPDWEEKSLAEVDSFFKNKIVSVPFVDPKPIPQNTNYKFNYKKPDISLIGSFALKAGIYQPNGSSIDTLLTMPKELFEKKDFLNFRCLHKRSVYLAYLTHHLLILLKKDKLDSFLQLEYSYFDNDPLLPILRISCSKPTGDSLSDYNFYKTRFSINLLIGFPYKVFEPKKLLPNRNCIRIAQESKEQSLPATPLYNFSVLSSSTHENYLKYLYKTKKQTESFVEATVLGRLWLQQRGFSSNMSHSGSLGGFGTFEFTILMAALLNGGGINSNKILLHGFSSYQLFKGVIKYLATMDLCHDGHLQFHSNPENSSSSPASKYIDEGFQTPTLFDKSTKVNILTKMTVSSYQILKEYAGETLRMLNNVVQDQFSNIFLTNISRFDNLKYDLCYDVQLPLGKYNNLETSLAATFGSMERVKFITLENFLAHKITNVARYALGDRIKYIQIEMVGQKSDFPITKRKVYSNTGGNHFNFDFVRVKLIVNPSECDKLVTKGPAHSETMSTEAAVFKNFWGIKSSLRRFKDGSITHCCVWSTSSSEPIISSIVNFALQKHVSKKAQISNETIKKFHNFLPLPNLPSSAKTSVLNLSSFFNLKKSFDDLYKIIFQMKLPLSVKSILPVGSAFRYTSLCQPVPFAYSDPDFFQDVILEFETSPKWPDEITSLEKAKTAFLLKIQEELSANSSTYRSFFSRDESIPYNLEIVTLNILTPEGYGFKFRVLTERDEILYLRAIANARNELKPELEATFLKFTAKYLASVRHTRTLENISHSYQFYSPVVRLFKRWLDTHLLLGHITDELAELIAIKPFVDPAPYFIPGSLENGFLKVLKFISQWNWKDDPLILDLVKPEDDIRDTFETSIGAGSELDSKTMKKLSERLTLAQYKGIQMNFTNLRNSDPNGTHLQFFVASKNDPSGILYSSGIPLPIATRLTALAKVAVNLLQTHGLNQQTINLLFTPGLKDYDFVVDLRTPIGLKSSCGILSATEFKNITNDQAPSNFPENLNDLSEKMDPTYQLVKYLNLKYKNSLILSSRKYIGVNGGEKGDKNVITGLIKPLFKGAHKFRVNLDCNVKPVDDENVILNKEAIFHEIAAFGNDMVINFETD

binding: binds
B4: Cop1 (protein, UniProt P53622 1-1201)
chain: MKMLTKFESKSTRAKGIAFHPSRPWVLVALFSSTIQLWDYRMGTLLHRFEDHEGPVRGLDFHPTQPIFVSAGDDYTIKVWSLDTNKCLYTLTGHLDYVRTVFFHRELPWIISASDDQTIRIWNWQNRKEIACLTGHNHFVMCAQFHPTDDLIVSASLDETIRIWDISGLRKRHSAPGTSSFEEQMSAQQNLLDGSLGDCVVKFILEGHTRGVNWASFHPTLPLIVSGSDDRQVKLWRMSATKAWEVDTCRGHTNNVDSVIFHPHQNLIISVGEDKTLRVWDLDKRTPVKQFKRENDRFWLIAAHPHINLFGAAHDSGIMVFKLDRERPCSFIHQNQLFFVNAEKQIQSFNFQKRVASLPYASLKGIGQPWDAFRSISYNPSQHSVLVNEANGKFALVILPKQPVGAVEPTSVTQDTGNFATFVGRNRFVVYNKNTESVEVRSLENKVTRNIKVEETVRTIVAAGPGSVLVIHPREVILYDVQQGKKVSQLAVKNVKYVSWSLDGQYVALMSKHTITLATKKLELINSMHETIRIKSAAWDETGVLIYSTLNHIRYSLLNGDRGIIKTLEKTLYITKVQGKLVYCLNREGEIEILTIDPTEYRFKKALVNKNFPEVLRLIKDSNLVGQNIISYLQKSGYPEIALQFVQDPHIRFDLALEYGNLDVALDEAKKLNDSSTWERLIQEALAQGNASLAEMIYQTQHSFDKLSFLYLVTGDVNKLSKMQNIAQTREDFGSMLLNTFYNNSTKERSSIFAEGGSLPLAYAVAKANGDEAAASAFLEQAEVDEQDVTLPDQMDASNFVQRPVISKPLEKWPLKEAELSYFEKAVLGQIDDLTIDDETPAVNTTQEQEEPLGEENFNDEDIGEDEGAWDLGDEDLDVGEELPEEVEQGEITSPAQEVETAIWIKNSKLPAVLVAAGAFDAAVQALSKQVGVVKLEPLKKYFTNIYEGCRTYIPSTPCELPAQLGYVRAYDDTVSEDQILPYVPGLDVVNEKMNEGYKNFKLNKPDIAIECFREAIYRITLLMVDDAEDEKLAHKILETAREYILGLSIELERRSLKEGNTVRMLELAAYFTKAKLSPIHRTNALQVAMSQHFKHKNFLQASYFAGEFLKIISSGPRAEQARKIKNKADSMASDAIPIDFDPYAKFDICAATYKPIYEDTPSVSDPLTGSKYVITEKDKIDRIAMISKIGAPASGLRIRV

binding: binds
B5: Coy1 (protein, UniProt P34237 1-679)
chain: MDTSVYSHALDIWAKADLTNLQRELDADVIEIKDKETLSLNSRKSLATETKKFKKLEPEEKLNNVNKIIKQYQREIDNLTQRSKFSEKVLFDVYEKLSEAPDPQPLLQSSLEKLGKIDDSKELKEKISYLEDKLAKYADYETLKSRLLDLEQSSAKTLAKRLTAKTQEINSTWEEKGRNWKEREADLLKQLTNVQEQNKALEAKISKNIDIEGNGNEDGDQENNQKEVSTRIAEYNLVTQELETTQARIYQLEKRNEELSGALAKATSEAEKETELHAKELKLNQLESENALLSASYEQERKSTSHAINELKEQLNSVVAESESYKSELETVRRKLNNYSDYNKIKEELSALKKIEFGVNEDDSDNDIRSEDKNDNTFESSLLSANKKLQATLAEYRSKSTAQEEERNELKKSVDQLKQQIATLKEANEKLETDLEKVENVSPHFNETASMMSGVTRQMNNRTSHKMSPTSSIIGIPEDGELSGNQSTILPIVTKQRDRFRSRNMDLEKQLRQGNSEKGKLKLEISKLKGDNTKLYERIRYLQSYNNNNAPVNQSTERIDVESQYSRVYDESLHPMANFRQNELNHYKNKKLSALEKLFSSFAKVILQNKMTRMVFLFYCIGLHGLVFMMSMYVINISGYMTPEVGIVQSAKSSSNLNGGLGGAEKVAAGVGSVHGINR

These are yes or no findings as the source states them, for the method shown. Binding seen in cells or lysates may run through a third protein. A yes stands for co-enrichment or nearness to the bait. Other partners may have been found. Each block holds one binder with its values, some of them ahead of it.
